Experimental findings from PubChem BioAssay AID2685 (National Center for Advancing Translational Sciences (NCATS), 2010) are described below.

The term AC50 denotes the concentration giving half of the maximal activity seen.

The assay in a line: qHTS Assay for Lipid Storage Modulators in Drosophila S3 Cells.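 On cell number change: cells counted by Cell Tracker Red CMTPX staining in the red channel.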 The following applies: BODIPY lipid droplet fluorescence, 18-24 h; for cell number change: measured here: cell count max response, cells fed with added oleic acid. Summed up: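 Laser-scanning cytometry quantifies lipid droplet accumulation (500–530 nm total intensity; droplet/cell object ratio) in oleic acid-fed (400 uM added) Drosophila S3 cells treated with a concentration series. 20 uM Triacsin C defined 100% inhibition.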
(Quantitative high-throughput screening tests each substance at several concentrations.)

[1] abbreviates: measured here: lipid fluorescence (Fed channel) AC50, cells fed with added oleic acid.
[2] abbreviates: measured here: cell number channel AC50, cells fed with added oleic acid.

The list shows a part of the results. The main result of the screen is listed elsewhere. These columns were measured beside it and carry no call. The list favours compounds with an active or inconclusive main result. Words in brackets tell the shape of the fitted curve; partial curves, single points and poor fits give uncertain potencies.

In the case of `COCC1CCN(C(=O)C2CCC(=O)N(CCc3cccc(F)c3)C2)CC1` (stereo not given), the cell number change is 12.3%. Moreover, under setting [1], the concentration at half-maximal activity (AC50) was 10.3 µM [rising, partial curve, poor fit].

On to `NC(=O)c1cc(S(=O)(=O)N2CC=C(c3ccccc3)CC2)cs1`, for which the cell number change was -8.94%. In addition, the concentration at half-maximal activity (AC50) under setting [1] is 29.1 µM [rising, single point].

In the case of `CC(C)(C)NC(=O)C12CCC(C)(c3nc4ccccc4nc31)C2(C)C` (stereo not given), the AC50 under setting [2] was 2.31 µM [rising, single point] and the AC50 under setting [1] is 6.51 µM [rising, partial curve].

In the case of `Cc1ccc(CNC(=O)Cn2ncn3cccc3c2=O)cc1`, the cell number change came to 28.8%. Besides, the AC50 under setting [1] was 29.1 µM [rising, single point].

As to `O=C(Nc1ccc(F)c(F)c1)C1CCCCC1`, the cell number change came out at 24.3%. The AC50 under setting [1] was 0.103 µM [falling, full curve, poor fit].

For the compound `NC(=O)CC(NC(=O)c1ccccc1)c1ccc(NCCN2CCOCC2)c([N+](=O)[O-])c1` (stereo not given), the cell number change came out at 19.8%. Moreover, the concentration at half-maximal activity (AC50) under setting [1] is 29.1 µM [rising, single point].

As to `Cc1ccc(C)c(S(=O)(=O)Nc2ccc3sc(C)nc3c2)c1`, the cell number change was -28.9%. Besides, the AC50 under setting [1] was 29.1 µM [falling, single point].

`Cn1c(=O)n(C)c2cc(S(=O)(=O)N3CCCc4ccccc43)ccc21`: the cell number change was -7.73%. Further, the concentration at half-maximal activity (AC50) under setting [1] is 0.82 µM [rising, single point].

In the case of `N#Cc1ccc(CSc2ccc(S(=O)(=O)N3CCCC3)cn2)cc1`, the cell number change was -0.937%. Under setting [1], the AC50 is 25.9 µM [rising, partial curve, poor fit].

Regarding `COc1cc(NS(=O)(=O)c2ccc3c(c2)C(C)(C)C(=O)N3C)cc(OC)c1`, the cell number change is -23.9%.

In the case of `O=C(O)c1cc(-c2ccccc2Cl)n[nH]1`, the cell number change stood at 7.83%.

As for `C=CCN1C(=O)/C(=C/c2ccccc2)S/C1=N/c1nccs1`, the cell number change was -5.31%. Also, the concentration at half-maximal activity (AC50) under setting [2] is 0.116 µM [falling, full curve, poor fit]. In addition, the AC50 under setting [1] was 0.116 µM [rising, full curve].

Regarding `CCOCCCNC(=O)c1ccc(C2SCC(=O)N2Cc2ccccc2)cc1` (stereo not given), the cell number change is -6.74%. The AC50 under setting [1] is 6.51 µM [rising, single point].

For `O=C(OC(c1ccc(NS(=O)(=O)c2ccccc2)cc1)(C(F)(F)F)C(F)(F)F)c1ccccc1`, the cell number change is -50.1%. Also, the AC50 under setting [2] is 2.31 µM [falling, partial curve, poor fit]. Also, under setting [1], the AC50 is 18.4 µM [falling, single point].

For `CC1=CC(C)(C)N(S(=O)(=O)c2ccc(C)cc2)c2ccc(C)cc21`, the cell number change stood at 2.93%. Besides, the AC50 under setting [1] was 0.164 µM [falling, full curve].

`Cc1cc(C)c2oc(-c3ccc(Cl)c(NC(=O)c4ccc(C#N)cc4F)c3)nc2c1`: under setting [1], the half-maximal activity concentration (AC50) is 1.84 µM [rising, partial curve].

Turning to `CCOc1cnc(-c2ccc(OC)cc2)o1`, the cell number change worked out at 8.58%. Further, the concentration at half-maximal activity (AC50) under setting [1] was 29.1 µM [rising, single point].

Consider `C[C@@H]1CN(c2c(F)c(N)c3c(=O)c(C(=O)O)cn(C4CC4)c3c2F)C[C@H](C)N1`, for which the cell number change is -22.6%. Also, the concentration at half-maximal activity (AC50) under setting [2] is 5.17 µM [falling, partial curve]. The half-maximal activity concentration (AC50) under setting [1] was 3.26 µM [falling, full curve].

As to `CC(C)(CNC(=O)c1cc2ccccc2o1)N1CCOCC1`, the cell number change amounted to 3.35%.

In the case of `O=C(Cc1ccc(F)cc1)N(c1ccccc1)C1C=CS(=O)(=O)C1` (stereo not given), the cell number change was -8.86%. For the same compound, the half-maximal activity concentration (AC50) under setting [2] was 0.58 µM [falling, single point].

As to `O=C(CN1C(=O)C2C3C=CC(C3)C2C1=O)Nc1cccc2c1CCCC2` (stereo not given), the half-maximal activity concentration (AC50) under setting [1] was 29.1 µM [falling, single point].

Take `CCCCn1c(N)c(N(CCC(C)C)C(=O)c2oc3ccc(OCC)cc3c2C)c(=O)[nH]c1=O`: the cell number change came to 68.5%.

Consider `C=CCSc1nc2c(c(=O)n(C)c(=O)n2C)n1CC`, for which the cell number change was 9.26%. Moreover, the half-maximal activity concentration (AC50) under setting [1] was 29.1 µM [rising, single point].

Consider `CC(C)(C)c1cc(C(=O)NNC(=O)Nc2ccccc2)n(Cc2ccccc2)n1`, for which the cell number change was -31.7%. Besides, under setting [2], the concentration at half-maximal activity (AC50) was 14.6 µM [falling, single point]. Further, the half-maximal activity concentration (AC50) under setting [1] was 29.1 µM [falling, single point].

On to `C=CCN1C(=O)c2ccc(C(=O)N3CCC(C(=O)OCC)CC3)cc2C1=O`, for which the cell number change was -18.9%. Also, under setting [2], the AC50 is 0.058 µM [falling, full curve, poor fit].

As to `Cc1ccc(-c2nnc(CSc3nnc(C)s3)o2)cc1`, the cell number change was -0.14%.

For the compound `Cc1ccc(NC(=O)c2ccc3nc[nH]c3c2)nc1`, the cell number change is -2.16%.

In the case of `COc1cccc(/C=C2\SC(=O)N(CCC(=O)NC3CCS(=O)(=O)C3)C2=O)c1` (stereo not given), the cell number change was -1.18%. Besides, the AC50 under setting [2] was 6.51 µM [falling, single point].

On to `CCN(CC)S(=O)(=O)c1ccc(S(=O)(=O)NCC2CCCO2)cc1` (stereo not given), for which the cell number change turned out to be 15.5%.

As for `Cc1cccc2[nH]c3c(N4CCC5(CC4)OCCO5)ncnc3c12`, the cell number change was -32.9%. For the same compound, the concentration at half-maximal activity (AC50) under setting [2] was 1.46 µM [falling, partial curve, poor fit]. Besides, the AC50 under setting [1] is 11.6 µM [falling, partial curve].

On to `O=C(Nc1ccccc1)OCCNC(=O)c1cccc(Br)c1`, for which the cell number change was -18.2%. For the same compound, the concentration at half-maximal activity (AC50) under setting [1] is 16.4 µM [falling, single point].

As to `Cc1nc2nc(-c3cccnc3)nn2c(C)c1Cl`, the AC50 by setting is: under setting [2], 2.91 µM [rising, partial curve]; under setting [1], 2.06 µM [rising, full curve].

Regarding `COc1ccc(C2CC(c3ccccc3)=NN2C(=O)CSc2ncn[nH]2)cc1` (stereo not given), the cell number change amounted to 38.8%. Further, under setting [2], the half-maximal activity concentration (AC50) was 0.0517 µM [rising, full curve, poor fit].

As for `COc1ccc(-n2nc(C(=O)N3CCN(Cc4ccc5c(c4)OCO5)CC3)c3ccccc3c2=O)cc1`, the cell number change was 23.1%. For the same compound, under setting [1], the half-maximal activity concentration (AC50) was 8.2 µM [rising, partial curve].

As to `COc1ccc(-n2nnc3c(=O)n(Cc4ccccc4C)cnc32)cc1`, the cell number change is -1.35%. Further, the half-maximal activity concentration (AC50) under setting [1] is 36.6 µM [falling, partial curve, poor fit].

Turning to `COc1ccc(NC(=O)CS(=O)(=O)c2ccccc2)cc1`, the cell number change is 29.1%. Further, the AC50 under setting [2] was 4.11 µM [rising, full curve, poor fit]. Under setting [1], the AC50 is 29.1 µM [rising, single point].

As to `Cc1nnc(SCC(=O)Nc2cccc(S(=O)(=O)NC3=NCCCCC3)c2)n1Cc1ccccc1`, the cell number change stood at 40%. Under setting [2], the concentration at half-maximal activity (AC50) is 0.00651 µM [rising, full curve].

Take `Cc1ccc(CNC(=O)C2CCN(S(=O)(=O)c3cnc[nH]3)CC2)cc1`: the cell number change is -16.8%. For the same compound, the AC50 under setting [2] was 0.731 µM [falling, full curve].

With `Cc1cc2c(cc1C)NC1=C(N2)OC(c2cccc(O)c2)C1=O` (stereo not given), the cell number change was -2.73%. Moreover, under setting [1], the AC50 was 0.0326 µM [rising, full curve, poor fit].

For `CC(C)CN(C(=O)COC(=O)CCC(=O)c1ccc(Cl)cc1)c1c(N)n(Cc2ccccc2)c(=O)[nH]c1=O`, the cell number change was -42%. Besides, the concentration at half-maximal activity (AC50) under setting [2] is 18.4 µM [falling, partial curve].

Consider `Cc1c(Cl)cccc1NC(=O)CSC(N)=O`, for which the cell number change is -6.99%. Also, the AC50 under setting [1] was 7.31 µM [falling, partial curve, poor fit].

As to `COC(=O)C(CC(=O)c1ccc(C)cc1)n1cccn1` (stereo not given), the cell number change came to 25.3%. The concentration at half-maximal activity (AC50) under setting [1] was 29.1 µM [rising, single point].

For the compound `CCOC(=O)c1cnc(SCC(=O)OCC(=O)N(CC)C2CCS(=O)(=O)C2)nc1N` (stereo not given), the cell number change was -50%. Further, the AC50 under setting [2] was 29.1 µM [falling, single point]. Moreover, the AC50 under setting [1] is 13 µM [rising, partial curve].

Turning to `CCOC(=O)c1[nH]c2ccccc2c1NC(=O)CN1CCCCC1`, the cell number change is -13.1%. The AC50 under setting [1] is 6.51 µM [falling, single point].

In the case of `CCCc1ccc(C(=O)CN2C(=O)C(=O)N(C3CCCC3)C2=O)cc1`, the cell number change was 13.8%.

Regarding `CCN1CCN(c2nnc(-c3ccccc3)c3ccccc23)CC1`, the cell number change was found to be 37.8%. Besides, under setting [1], the concentration at half-maximal activity (AC50) is 6.51 µM [rising, single point].

For the compound `Cc1cccc(NC(=O)[C@@H](CC(C)C)NC(=O)[C@@H]2Cc3ccccc3CN2)c1`, the cell number change is 17.9%. In addition, the AC50 under setting [1] was 0.58 µM [falling, single point].

Regarding `CCOC(=O)N1CCC(NC(=O)c2cc(S(=O)(=O)N3CCc4ccccc43)cn2C)CC1`, the cell number change was -4.46%. Also, under setting [1], the half-maximal activity concentration (AC50) is 2.59 µM [rising, full curve, poor fit].

Take `COc1ccc(C(=O)NC(=S)N2CCCCC2)cc1[N+](=O)[O-]`: the cell number change is 19.6%.

Take `COc1ccc(/C=N/NC(=O)c2ccc(COc3ccccc3Cl)o2)cc1`: the cell number change is 6.83%.

On to `CC(C)(C)NC(=O)COc1ccc(CNCCc2ccccc2)cc1`, for which the cell number change was 15.1%. In addition, under setting [1], the AC50 was 23.1 µM [rising, single point].

Consider `O=C1c2oc3ccc(Br)cc3c(=O)c2C(c2cccc(F)c2)N1CCO` (stereo not given), for which the cell number change stood at 2.08%. Under setting [1], the AC50 was 29.1 µM [falling, single point].

`COc1cc(-c2c(-c3ccc4c(c3)OCO4)noc2C)ccc1F`: the cell number change stood at 21%.

With `O=[N+]([O-])c1ccc(-c2cn3nc(-c4ccccc4)c(-c4ccccc4)nc3n2)cc1`, the cell number change was -9.24%. Also, the AC50 under setting [2] is 6.51 µM [falling, single point]. Also, the AC50 under setting [1] was 3.66 µM [falling, full curve, poor fit].

Regarding `Cc1ccc(NC2CCCN(C(=O)C3CCCCC3)C2)cc1C` (stereo not given), the cell number change was -16.6%. Also, under setting [1], the AC50 was 5.01 µM [falling, partial curve].

As for `CC(OC(=O)C1CCCCC1)C(=O)Nc1cccc(Cl)c1` (stereo not given), the cell number change was -0.855%. In addition, the AC50 under setting [2] is 3.26 µM [falling, single point].

As for `CSc1ccccc1NC(=O)CN(C)Cc1c(O)ccc2ccccc12`, the cell number change was -4.84%.

In the case of `COc1ccccc1NC(=O)/C(=C\c1cccnc1)NC(=O)c1ccc(C)cc1`, the cell number change stood at 15.7%. In addition, the half-maximal activity concentration (AC50) under setting [1] is 6.51 µM [rising, single point].

With `Cc1c(Cl)cnc(NC(=O)CSc2nnc(C)n2Cc2ccccc2)c1Cl`, the cell number change stood at 13.1%. For the same compound, the half-maximal activity concentration (AC50) under setting [2] is 2.91 µM [rising, single point].

`Cc1ccc(S(=O)(=O)N2CCN(C)CC2c2ccccc2)cc1` (stereo not given): the cell number change is -20.9%.

As for `Cc1ccccc1C(=O)Nc1cccc(C(=O)N/N=C/c2ccccn2)c1`, the cell number change amounted to 7.91%.

On to `COc1ccc(Cl)cc1NC(=S)N(CCCN1CCOCC1)Cc1cn(C)c2ccccc12`, for which the cell number change is -2.11%.
